According to US20230112450A1, “COMBINED USE OF CTB006 AND PONATINIB” (Beijing Sinotau Bio-Pharmaceuticals Technology Co., Ltd., priority 2020, published 2023):
“Also recorded” adds a separate entry of the source. At least one structure is not confirmed: it was looked up by name or label, or the drawing left a doubt.

Columns and labels:
S2Lm7AA cells = assay: Tumor cell survival by ATPlite after 24 h incubation; CDI; type: cell-based; conditions: drug alone
Protocol: (§1) The interaction between CTB006 antibody and Ponatinib: we used coefficient of drug interaction (CDI)^[1,2] to evaluate the combined effect of CTB006 antibody and chemotherapeutic drugs. CDI was calculated according to the following formula: CDI=AB/A×B; AB was the ratio of the detection values of the two-drug combination group to the control group (survival rate of the drug combination group), and A or B was the ratio of the detection values of each individual drug to the control group (survival rate of the drug alone group).
(§2) The survival of each tumor cell was observed by ATPlite method after incubation at 37° C., 5% CO2 for 24 h.

A549 cells = assay: as above; type: cell-based; conditions: drug alone at corresponding concentrations
Protocol: as §1, §2
(§3) Methods were as described above.

MCF-7 cells = assay: as above; type: cell-based; conditions: drug alone
Protocol: as §1, §2, §3

S2VP10 cells = assay: as above; type: cell-based; conditions: drug alone
Protocol: as §1, §2, §3

primary tumor cells S1 = assay: Killing of primary tumor cells from ovarian cancer ascites; CDI; type: cell-based; conditions: used alone
Protocol: as §1, §2

primary tumor cells S2 = assay: as above; type: cell-based; conditions: used alone
Protocol: as §1, §2

Caspase-3 = assay: Western blot of Caspase-3 cleavage in SW1116, 7901, HT29, S2Lm7AA cells; type: cell-based; conditions: all four cells; 1000 ng/ml CTB006, 1 μM Ponatinib, overnight
caspase-8,9 = assay: Western blot of caspase-8,9 cleavage in 7901, HT29, S2Lm7AA cells; type: cell-based; conditions: 7901, HT29 and S2Lm7AA cells; 1000 ng/ml CTB006, 1 μM Ponatinib, overnight
p-MEK, p-ERK = assay: Western blot of phosphorylation level of MEK/ERK signaling pathway in four tumor cells; type: cell-based; conditions: 1000 ng/ml CTB006, 1 μM Ponatinib, overnight
PDX model CS266 = assay: Gastric cancer PDX transplantation tumor model; conditions: administration stopped at day 31
PDX model CS263 = assay: Colorectal cancer PDX transplantation tumor model; conditions: administration stopped at day 44

Q: For `Cc1ccc(C(=O)Nc2ccc(CN3CCN(C)CC3)c(C(F)(F)F)c2)cc1C#Cc1cnc2cccnn12` [Ponatinib], which killing effect (S2Lm7AA cells) is on record?
A: no killing effect

Q: And the killing effect (A549 cells)?
A: no killing effect

Q: What about the killing effect (MCF-7 cells) of the same molecule?
A: did not have a significant killing effect; also recorded: some degree of killing effect

Q: What about the killing effect (S2VP10 cells) of the same molecule?
A: not significant; also recorded: no killing effect

Q: And the killing effect (primary tumor cells S1)?
A: limited killing effect

Q: And the killing effect (primary tumor cells S2)?
A: limited killing effect

Q: What about the Caspase-3 cleavage (Caspase-3) of the same molecule?
A: did not induce caspase cleavage

Q: And the “caspase-8,9 cleavage” value (caspase-8,9)?
A: did not induce cleavage

Q: What about the “p-MEK, p-ERK” value (p-MEK, p-ERK) of the same molecule?
A: significantly downregulated

Q: And the “tumor growth during continued observation after drug withdrawal” value (PDX model CS266)?
A: significantly accelerated

Q: And the “tumor growth during continued observation after drug withdrawal” value (PDX model CS263)?
A: significantly accelerated
